Results from patent EP2899279A1.
Results are given in words; binding and its absence hold for the method and conditions named. A result given as binding can be weak or reduced; the word gives no strength. Where a sequence is shown, tags or fusion partners need not be part of it.

What was measured:
[1] = target: Grapevine fanleaf virus isolate B844 (Grapevine fanleaf virus, isolate B844); experiment: DAS-ELISA, legend of Figure 3B
[2] = target: Grapevine fanleaf virus isolate BE4.11 (Grapevine fanleaf virus, isolate BE4.11); experiment: DAS-ELISA, legend of Figure 3B
[3] = target: Grapevine fanleaf virus isolate BE5.19 (Grapevine fanleaf virus, isolate BE5.19); experiment: DAS-ELISA, legend of Figure 3B
[4] = target: Grapevine fanleaf virus isolate BUChardT60 (Grapevine fanleaf virus, isolate BUChardT60); experiment: DAS-ELISA, legend of Figure 3B
[5] = target: Grapevine fanleaf virus isolate CO2 (Grapevine fanleaf virus, isolate CO2); experiment: DAS-ELISA, legend of Figure 3B
[6] = target: Grapevine fanleaf virus isolate GHu (Grapevine fanleaf virus, isolate GHu); experiment: DAS-ELISA, legend of Figure 3B
[7] = target: Grapevine fanleaf virus isolate TD (Grapevine fanleaf virus, isolate TD); experiment: DAS-ELISA, legend of Figure 3B
[8] = target: Grapevine fanleaf virus isolate B844 (Grapevine fanleaf virus, isolate B844); experiment: DAS-ELISA: virus captured by anti-GFLV polyclonals, StrepII tagged Nb23 at 1 µg/ml as detection antibody
[9] = target: Grapevine fanleaf virus isolate BE4.11 (Grapevine fanleaf virus, isolate BE4.11); experiment: as above
[10] = target: Grapevine fanleaf virus isolate BE5.19 (Grapevine fanleaf virus, isolate BE5.19); experiment: as above
[11] = target: Grapevine fanleaf virus isolate BUChardT60 (Grapevine fanleaf virus, isolate BUChardT60); experiment: as above
[12] = target: Grapevine fanleaf virus isolate CO2 (Grapevine fanleaf virus, isolate CO2); experiment: as above
[13] = target: Grapevine fanleaf virus isolate GHu (Grapevine fanleaf virus, isolate GHu); experiment: as above
[14] = target: Grapevine fanleaf virus isolate TD (Grapevine fanleaf virus, isolate TD); experiment: as above

Measured: binding

B1: StrepII tagged Nb23 (VHH, not shown: small tags and cut ends)
VHH: QVQLQESGGGSVQVGGSLRVACAASGDTFSGYLAAWFRQAPGKGREGVAAINSKRHTTSYADSVKGRFTISKDNADNIMYLEMNSLKPEDTAIYYCAAADAIGLAEYWSTPTLSAARYKYWGQGTQVTVSS
binds: [1] | [2] | [3] | [4] | [5] | [6] | [7] | [8] | [9] | [10] | [11] | [12] | [13] | [14]
